From publication PMC8873433 come the findings set out here.

Protein sequences, listed by entry. Tags and fused reporters are not part of them.
UniProt Q4V8G6: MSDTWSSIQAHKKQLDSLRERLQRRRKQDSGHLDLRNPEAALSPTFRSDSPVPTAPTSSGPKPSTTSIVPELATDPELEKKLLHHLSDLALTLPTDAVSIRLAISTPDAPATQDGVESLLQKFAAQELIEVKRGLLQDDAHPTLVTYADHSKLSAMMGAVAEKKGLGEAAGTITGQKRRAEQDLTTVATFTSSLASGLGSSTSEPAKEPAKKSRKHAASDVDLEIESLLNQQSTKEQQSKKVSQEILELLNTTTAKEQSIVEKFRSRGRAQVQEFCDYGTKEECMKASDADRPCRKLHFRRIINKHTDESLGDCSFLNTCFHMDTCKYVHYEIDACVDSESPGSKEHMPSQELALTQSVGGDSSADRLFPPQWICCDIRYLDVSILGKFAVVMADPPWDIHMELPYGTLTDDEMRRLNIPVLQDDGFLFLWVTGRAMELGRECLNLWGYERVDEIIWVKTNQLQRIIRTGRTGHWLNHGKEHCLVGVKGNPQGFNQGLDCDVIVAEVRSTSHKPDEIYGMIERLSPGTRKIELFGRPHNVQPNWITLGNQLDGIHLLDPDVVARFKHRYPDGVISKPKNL

These are yes or no findings as the source states them, for the method shown. In cells and extracts the contact can be indirect. Some binding calls cover weakened binding; strength is not graded here.

The target in the assay is Methyltransferase-like 3 (METTL3) (rat (endogenous in RN-sc)) (UniProt Q4V8G6). Put plainly: co-IP; RN-sc cell lysate incubated with anti-METTL3 antibody at 4 °C overnight, protein A/G agarose beads 2 h, western blot for DGCR8; with and without RNase.

B1: DGCR8 (protein, UniProt D4A2G4 1-773)
chain: METYESPSPLPHEPTGEAMMENRACPFQVLPHEQSPPPPLQTSSDAEVMDVGSGGDGQSEPPADDPFNFYGASLLSKGSFSKGRLLIDPNCSGHSPRTARHAPAVRKFSPDLKLLKDVKISVSFTESCRSKDRKVLYTGVERSTRPECSQLLSPVCGDVHACPFGGSVGNGVGLGGESTDKKDEENELDQEKRVEYAVLDELEDFTDNLELDEEGTGGFTANAIVQRDRVDEEALNFSYEDDFDNDVDALLEEGLCAPKKRRMEEKYGGDSDHPSDGETSVQPMMTKIKTVLKSRGRPPTEPLPDGWIMTFHNSGVPVYLHRESRVVTWSRPYFLGTGSIRKHDPPLSSIPCLHYKKMKDNEEREQSCDLAPSGEVSPVKPLGRSAELDFPLEEPDSLGGDSGSLDEKDPLGAEAAAGALGQVRAKVEVCKDESVDLEEFRNYLEKRFDFEQVTVKKFRTWAERRQFNREMKRKQAESERPILPANQKLITLSVQDAPTKKEFVINPNGKSEVCILHEYMQRVLKVRPVYNFFECENPSEPFGASVTIDGVTYGSGTASSKKLAKNKAARATLEILIPDFVKQTSEEKPKDSEELEYFNHISIEDSRVYELTSKAGLLSPYQILHECLKRNHGMGDTSIKFEVVPGKNQKSEYVMACGKHTVRGWCKNKRVGKQLASQKILQLLHPHVKNWGSLLRMYGRESSKMVKQETSDKSVIELQQYAKKNRPNLHILSKLQEEMKRLAAEREETRKKPKMSIVASAQPGGEPLCTVDV
For B1, the binding result is “binds”.
